Data on two molecules can be found in publication PMC10379010, “Short Peptides of Innate Immunity Protein Tag7 (PGLYRP1) Selectively Induce Inhibition or Activation of Tumor Cell Death via TNF Receptor” (International Journal of Molecular Sciences, 2023).

By UniProt entry, the sequences of proteins in these tests, tags left out. Residues count along the entry.
UniProt P19438, residues 30-211: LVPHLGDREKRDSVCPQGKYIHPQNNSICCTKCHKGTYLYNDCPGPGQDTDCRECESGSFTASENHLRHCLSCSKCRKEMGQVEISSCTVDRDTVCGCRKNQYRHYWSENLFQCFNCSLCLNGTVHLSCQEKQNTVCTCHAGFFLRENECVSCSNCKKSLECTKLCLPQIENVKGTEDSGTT

In experiment [1] the target is T1, TNFR1 receptor exposed on the cell surface of L929 cells (mouse (endogenous in L929)) (UniProt P25118).
T1 sequence: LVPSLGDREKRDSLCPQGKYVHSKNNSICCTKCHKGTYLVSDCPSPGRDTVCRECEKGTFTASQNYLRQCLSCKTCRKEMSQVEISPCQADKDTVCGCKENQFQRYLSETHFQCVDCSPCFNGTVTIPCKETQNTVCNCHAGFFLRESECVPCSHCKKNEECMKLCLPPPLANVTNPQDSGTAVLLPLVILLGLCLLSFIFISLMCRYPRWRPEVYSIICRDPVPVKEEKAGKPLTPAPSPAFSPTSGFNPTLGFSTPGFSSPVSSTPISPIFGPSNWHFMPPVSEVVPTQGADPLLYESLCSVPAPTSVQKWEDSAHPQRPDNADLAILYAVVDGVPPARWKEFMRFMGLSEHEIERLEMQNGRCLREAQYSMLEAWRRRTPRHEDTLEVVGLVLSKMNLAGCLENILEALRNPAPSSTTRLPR
In words: cross-linking; biotinylated peptides (1 nM) incubated 1 h with L929 cells, cross-linked with BS3; RIPA lysate; Streptavidin magnetic beads; Western blot with antibodies to TNFR1; only the binder purified. In general terms: In western blotting, separated proteins are transferred to a membrane and probed.

The target in experiment [2] is soluble TNFR1 receptor domain (sTNFR1) (UniProt P19438). Nature of the experiment: affinity chromatography; sTNFR1 immobilised on CNBr-activated Sepharose 4B; biotinylated peptides loaded; washed with PBS containing 0.5 M NaCl and PBS; eluted with 0.25 M triethylamine pH 12; Tricine-SDS-PAGE, blot, HRP-Streptavidin; both purified.

Results are given in words; binding and its absence hold for the method and conditions named. For part of these data: Binding seen in cells or lysates may run through a third protein. Some binding calls cover weakened binding; strength is not graded here.

Take RSNYVLKG (biotin (site not stated)) [biotinylated peptide 17.1B]: in experiment [1], the binding result was “binds weakly”.
As to HRDVQRT (biotin (site not stated)) [biotinylated peptide 17.1A], the binding result in experiment [2] and in experiment [1] was “binds” in each case.
